Record: PubChem BioAssay AID1259254 (NCATS, 2017)
Screen: 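Gene knock-downs that lead to re-replication, shown by excess G2 DNA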 (primary screen). System: human HCT116 colorectal cancer cells. Reagents: single siRNA against human genes. Timing: 3 days. Measurement: 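Nuclei stained with Hoechst and imaged; cell-cycle phase assigned by DNA content; G2 share scaled per plate, non-targeting siRNA 0%, GMNN siRNA 100%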. Direction: G2 robust z-score and G2 cells, % of GMNN control: higher = more G2 cells, more excess DNA replication; raw share of cells in G2: higher = larger share of cells with G2 DNA content. Active means: 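Active siRNAs have a G2 robust z of 5 or more median absolute deviations over the median, which in these data means about 38% or higher of GMNN control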.
The whole screen tested about 59,000 reagents; below is a random part of them. Of all reagents, about 1,550 (2.6%) were called active. 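G2 share is only a proxy for re-replication; each gene was hit by three separate siRNAs, and active genes were retested.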 The raw values are shown without normalisation. The numbers tell different reagents against one gene apart. Not stated in the record: the amount of reagent.

The opening 9 entries, ahead of the listing:
| Target gene | reagent | G2 robust z-score | G2 cells, % of GMNN control | raw share of cells in G2 (%) | call |
| --- | --- | --- | --- | --- | --- |
| IGF2BP3 | 1 | -0.493 | -0.502 | 3.68 | inactive |
| IGF2BP3 | 2 | -0.78 | -2.52 | 5.48 | inactive |
| IGF2BP3 | 3 | 1.08 | 10.6 | 10.3 | inactive |
| DLG1 | 1 | -0.563 | -0.991 | 4.61 | inactive |
| DLG1 | 2 | -0.112 | 2.18 | 5.79 | inactive |
| DLG1 | 3 | 0.26 | 4.8 | 5.75 | inactive |
| ALG2 | 1 | 5.8 | 43.8 | 23.7 | active |
| ALG2 | 2 | -0.68 | -1.82 | 4.83 | inactive |
| ALG2 | 3 | 1.26 | 11.8 | 8.95 | inactive |

The listing, repeating the preview:
| Target gene | reagent | G2 robust z-score | G2 cells, % of GMNN control | raw share of cells in G2 (%) | call |
| --- | --- | --- | --- | --- | --- |
| IGF2BP3 | 1 | -0.493 | -0.502 | 3.68 | inactive |
| IGF2BP3 | 2 | -0.78 | -2.52 | 5.48 | inactive |
| IGF2BP3 | 3 | 1.08 | 10.6 | 10.3 | inactive |
| DLG1 | 1 | -0.563 | -0.991 | 4.61 | inactive |
| DLG1 | 2 | -0.112 | 2.18 | 5.79 | inactive |
| DLG1 | 3 | 0.26 | 4.8 | 5.75 | inactive |
| ALG2 | 1 | 5.8 | 43.8 | 23.7 | active |
| ALG2 | 2 | -0.68 | -1.82 | 4.83 | inactive |
| ALG2 | 3 | 1.26 | 11.8 | 8.95 | inactive |
| KCNK4 | 1 | 0.465 | 6.24 | 6.89 | inactive |
| KCNK4 | 2 | -0.915 | -3.47 | 3.02 | inactive |
| KCNK4 | 3 | 0.707 | 7.94 | 8.18 | inactive |
| LINC02693 | 1 | -1.23 | -5.7 | 2.03 | inactive |
| LINC02693 | 2 | -0.0138 | 2.87 | 4.51 | inactive |
| LINC02693 | 3 | -0.872 | -3.16 | 2.91 | inactive |
| KCNC2 | 1 | 2.46 | 20.3 | 12.7 | inactive |
| KCNC2 | 2 | -0.0368 | 2.71 | 5.7 | inactive |
| KCNC2 | 3 | -0.331 | 0.641 | 4.63 | inactive |
| GMCL1 | 1 | -0.694 | -1.91 | 3.75 | inactive |
| GMCL1 | 2 | 0.178 | 4.22 | 6.5 | inactive |
| GMCL1 | 3 | 0.644 | 7.5 | 4.68 | inactive |
| HLA-DQB2 | 1 | 0.276 | 4.91 | 5.45 | inactive |
| HLA-DQB2 | 2 | 0.872 | 9.1 | 9.57 | inactive |
| HLA-DQB2 | 3 | 0.682 | 7.76 | 6.93 | inactive |
| SNX20 | 1 | 0.693 | 7.84 | 7.24 | inactive |
| SNX20 | 2 | 2.28 | 19 | 9 | inactive |
| SNX20 | 3 | -0.982 | -3.94 | 0.666 | inactive |
| LCE4A | 1 | -0.373 | 0.343 | 3.73 | inactive |
| LCE4A | 2 | 0.241 | 4.66 | 4.52 | inactive |
| LCE4A | 3 | -0.47 | -0.339 | 2.65 | inactive |
| SLC41A1 | 1 | -0.0348 | 2.72 | 4.56 | inactive |
| SLC41A1 | 2 | 1.72 | 15.1 | 8.3 | inactive |
| SLC41A1 | 3 | 0.249 | 4.72 | 4.7 | inactive |
| ATAD1 | 1 | -1.13 | -4.97 | 2.6 | inactive |
| ATAD1 | 2 | 0.265 | 4.83 | 7.04 | inactive |
| ATAD1 | 3 | 4.95 | 37.8 | 23.2 | inactive |
| RNF122 | 1 | -0.535 | -0.797 | 4.11 | inactive |
| RNF122 | 2 | 0.143 | 3.97 | 6.04 | inactive |
| RNF122 | 3 | -0.143 | 1.96 | 2.91 | inactive |
| LOC643675 (retired record) | 1 | 1.37 | 12.6 | 8.45 | inactive |
| LOC643675 (retired record) | 2 | 2.22 | 18.6 | 9.95 | inactive |
| LOC643675 (retired record) | 3 | -0.309 | 0.795 | 3.38 | inactive |
| RAP1BL | 1 | 1.22 | 11.5 | 8.02 | inactive |
| RAP1BL | 2 | -0.375 | 0.326 | 3.24 | inactive |
| RAP1BL | 3 | 0.248 | 4.71 | 4.97 | inactive |
| P2RX1 | 1 | -0.753 | -2.33 | 4.44 | inactive |
| P2RX1 | 2 | -0.137 | 2.01 | 5.46 | inactive |
| P2RX1 | 3 | -0.686 | -1.86 | 3.65 | inactive |
| MFF | 1 | -1.39 | -6.84 | 1.65 | inactive |
| MFF | 2 | -0.57 | -1.04 | 3.96 | inactive |
| MFF | 3 | 0.856 | 8.99 | 5.88 | inactive |
| TTC31 | 1 | -1.11 | -4.87 | 2.46 | inactive |
| TTC31 | 2 | 2.79 | 22.6 | 14.7 | inactive |
| TTC31 | 3 | -0.617 | -1.38 | 2.33 | inactive |
| SUMF1 | 1 | 0.949 | 9.64 | 7.16 | inactive |
| SUMF1 | 2 | -0.404 | 0.126 | 3.09 | inactive |
| SUMF1 | 3 | 1.09 | 10.7 | 6.51 | inactive |
| GABRA6 | 1 | 0.171 | 4.17 | 6.81 | inactive |
| GABRA6 | 2 | 1.65 | 14.5 | 9.7 | inactive |
| GABRA6 | 3 | 2.92 | 23.5 | 13.5 | inactive |
| SREK1 | 1 | -0.86 | -3.09 | 1.99 | inactive |
| SREK1 | 2 | -0.441 | -0.132 | 3.78 | inactive |
| SREK1 | 3 | -0.629 | -1.46 | 2.46 | inactive |
| EFCAB5 | 1 | 0.44 | 6.07 | 6.07 | inactive |
| EFCAB5 | 2 | 2.4 | 19.9 | 11.9 | inactive |
| EFCAB5 | 3 | -0.368 | 0.377 | 4.34 | inactive |
| IPO7 | 1 | 3.46 | 27.3 | 12.7 | inactive |
| IPO7 | 2 | 0.301 | 5.09 | 8.48 | inactive |
| IPO7 | 3 | 2.49 | 20.5 | 14.6 | inactive |
| ST3GAL3 | 1 | -0.0292 | 2.76 | 6.61 | inactive |
| ST3GAL3 | 2 | 1.64 | 14.5 | 9.52 | inactive |
| ST3GAL3 | 3 | 2.02 | 17.1 | 9.63 | inactive |
| RPL23AP37 | 1 | 2.71 | 22 | 10.1 | inactive |
| RPL23AP37 | 2 | 0.911 | 9.38 | 5.98 | inactive |
| RPL23AP37 | 3 | 0.0402 | 3.25 | 5.4 | inactive |
| FOXG1 | 1 | -0.331 | 0.638 | 5.51 | inactive |
| FOXG1 | 2 | 2.59 | 21.2 | 12.9 | inactive |
| FOXG1 | 3 | 1.27 | 11.9 | 7.91 | inactive |
| SMPD1 | 1 | -0.136 | 2.01 | 6.36 | inactive |
| SMPD1 | 2 | 3.02 | 24.2 | 12.8 | inactive |
| SMPD1 | 3 | 0.523 | 6.65 | 6.16 | inactive |
| P3H4 | 1 | 2.98 | 24 | 14 | inactive |
| P3H4 | 2 | 6.46 | 48.5 | 21.3 | active |
| P3H4 | 3 | 0.0312 | 3.19 | 6.23 | inactive |
| OR51I1 | 1 | -1.25 | -5.81 | 1.78 | inactive |
| OR51I1 | 2 | 0.201 | 4.38 | 5.31 | inactive |
| OR51I1 | 3 | 0.521 | 6.63 | 7.48 | inactive |
